The campaign covered roughly 300,000 compounds. About 5,400 (1.8%) were called active. Inconclusive results, whose numbers are uncertain, are shown with a selection of clear calls. Calls come from the whole dose curve; tested in HEK293 cells. Potencies beside an inconclusive call are fits to weak or partial responses and may not hold up.
experiment: qHTS for inhibitors of binding or entry into cells for Marburg Virus; settings: Marburg virus pseudotyped entry inhibition, cell reporter; activity change, negative = inhibition: at 37.8 µM (top of the series) unless noted
% is set by controls: 0 for no effect and ±100 for the full control effect; potency is the fitted concentration of half-maximal effect.

Structure (SMILES)	Potency	activity change, negative = inhibition
COc1ccccc1OCC(=O)Nc1nc(C)c(C)s1	inconclusive: 12.6 µM [inhibitor, single point]	
Cc1nnc(NC(=O)C2CCCO2)s1 (stereo unspecified)		inactive: -4.65%
Cc1ccccc1OCC(=O)NC(Cc1c[nH]c2ccccc12)C(=O)O (stereo unspecified)	inconclusive: 35.5 µM [inhibitor, single point]	
CCOCCCNC(=O)C(NC(=O)c1cnccn1)c1ccc(OC)cc1 (stereo unspecified)		inactive: -10.4% [at 46.1 µM]
COc1ccc(NS(=O)(=O)c2ccc(N3CCOCC3)c(NC(=O)c3ccc(OC)cc3)c2)cc1	inconclusive: 0.631 µM [activator, partial curve, poor fit]	
O=C1CCCN1C(=O)CCC(=O)N1CCCC1=O	inconclusive: 5.62 µM [inhibitor, single point]	
O=C(Nc1ccc2c(c1)OCO2)c1cccc(F)c1		inactive: -5.25%
O=C(O)c1ccc(/C=N/Nc2ccc(C(F)(F)F)cn2)cc1		inactive: -7.23% [at 46.1 µM]
Cc1cccc(NC(=O)NCCc2c[nH]c3ccccc23)c1	inconclusive: 8.91 µM [inhibitor, partial curve, poor fit]	
CCOc1ccc(Cl)cc1CNCCNCC(C)O (stereo unspecified)	inconclusive: 5.17 µM [inhibitor, full curve, poor fit]	
COc1ccc(-c2nc(Cn3c(SCc4ccccc4F)nc4ccncc43)c(C)o2)cc1OC		inactive: 18.8% [at 46.1 µM]
CCc1[nH]nc2c1C(c1ccsc1)C(C#N)=C(N)O2 (stereo unspecified)	inconclusive: 0.631 µM [activator, full curve]	
CN(C)c1ccc(/C=N/NC(=O)c2ccccc2Cl)cc1	inconclusive: 4.47 µM [inhibitor, full curve, poor fit]	
c1ccc2c(CN3CCCCC3)csc2c1	inconclusive: 1 µM [activator, full curve, poor fit]	
CCOc1cc(CNC2CCCC2)cc(Cl)c1OCc1ccccc1	inconclusive: 25.1 µM [inhibitor, single point]	
CCOC(=O)c1c(C)n(Cc2ccccc2)c2ccc(OCC(O)CNC(C)(C)C)cc12 (stereo unspecified)	inconclusive: 2.51 µM [inhibitor, full curve, poor fit]	
Cc1ccc(S(=O)(=O)Nc2nc3n(n2)C(c2ccccc2Cl)C=C(c2ccccc2)N3)cc1 (stereo unspecified)	inconclusive: 31.6 µM [inhibitor, partial curve, poor fit]	
Cc1ccc(NC(=O)Cn2nc(C)c([N+](=O)[O-])c2C)cc1Cl		inactive: -9.56%
O=C(c1cccs1)N1N=C(c2ccccc2)CC1c1ccccc1 (stereo unspecified)	inconclusive: 9.2 µM [inhibitor, single point]	
CC(O)CC(C(=O)NNc1ccccc1)C(=O)NNc1ccccc1 (stereo unspecified)	inconclusive: 2 µM [inhibitor, full curve, poor fit]	
Cc1snc(SCC(=O)c2ccc(Cl)cc2)c1C#N	inconclusive: 6.51 µM [activator, single point]	
COc1ccc(N2CCCC2)c(NC(=O)c2ccc([N+](=O)[O-])o2)c1		inactive: -16.8% [at 46.1 µM]
COc1ccc(C2(CNC(=O)c3ccc(OCC(C)C)cc3)CCOCC2)cc1		inactive: -15.1%

In a second layout: results already given.
Structure (SMILES),Potency,"activity change, negative = inhibition"
Cc1cccc(NC(=O)NCCc2c[nH]c3ccccc23)c1,"inconclusive: 8.91 µM [inhibitor, partial curve, poor fit]",
Cc1ccc(S(=O)(=O)Nc2nc3n(n2)C(c2ccccc2Cl)C=C(c2ccccc2)N3)cc1 (stereo unspecified),"inconclusive: 31.6 µM [inhibitor, partial curve, poor fit]",
COc1ccc(N2CCCC2)c(NC(=O)c2ccc([N+](=O)[O-])o2)c1,,inactive: -16.8% [at 46.1 µM]

Further records:

Structure (SMILES)	Potency	activity change, negative = inhibition
CC[N@+]1(C)CCC[C@H](OC(=O)C(O)(c2ccccc2)c2ccccc2)C1		inactive: 8.76%
CS(=O)(=O)Cc1ccc(C(=O)NC2CCCc3ccccc32)cc1 (stereo unspecified)	inconclusive: 35.5 µM [inhibitor, partial curve, poor fit]	
COCC(=O)Nc1ccc(OC)c(Cl)c1	inconclusive: 11.2 µM [activator, partial curve, poor fit]	
COc1ccc2c(c1)[nH]c1c(N3CCSCC3)ncnc12	inconclusive: 11.2 µM [inhibitor, partial curve, poor fit]	
CCOC(=O)NC(=S)Nc1ccc(C(C)(C)C)cc1	inactive	
O=C(NC(=S)Nc1cccc([N+](=O)[O-])c1)C1CCCC1		inactive: 17.6% [at 46.1 µM]
CN(C(=O)c1c[nH]c(=O)cc1C(F)(F)F)c1ccc(Cl)c(Cl)c1	inconclusive: 12.6 µM [inhibitor, partial curve, poor fit]	
Cc1c(NC(=O)C(C)OC(=O)c2sc3ccccc3c2Cl)c(=O)n(-c2ccccc2)n1C (stereo unspecified)		inactive: 5.72%
OCc1ccc(O)c2ncccc12	inconclusive: 11.2 µM [inhibitor, partial curve]	
CCOC(=O)c1cc2ccc3ccccc3c2s1		inactive: 1.41%
CCOC(=O)Nc1ccc2c(c1)ncn2C1CCCCC1		inactive: 15.4%
Cc1nc(C(F)(F)F)nc(Nc2ccc(Br)cc2)c1C#N	inconclusive: 22.4 µM [inhibitor, single point]	
Cc1ccc(S(=O)(=O)OC[C@@H]2CN3[C@H](c4ccc(Br)cc4)[C@H](C)CC[C@H]3C(=O)O2)cc1	inactive	
N#CCSc1ccc(-c2nc3ccccc3[nH]2)cn1	inconclusive: 1.12 µM [activator, partial curve, poor fit]	
Cn1nc(C(F)(F)F)c(/C=N/OC(=O)c2ccccc2Cl)c1SCc1ccc(Cl)cc1	inconclusive: 5.8 µM [inhibitor, partial curve, poor fit]	
C/C(=N\NC(=O)c1ccccc1C)c1ccc(NC(=O)c2cccs2)cc1		inactive: -25.2%
Nc1nc(NC(=O)c2ccc(Cl)cc2)nn1-c1ccccc1	inconclusive: 0.501 µM [activator, partial curve, poor fit]	
COc1cc(C2C3=C(COC3=O)OC(C)(C)Oc3cc4c(cc32)OCO4)cc(OC)c1OC (stereo unspecified)	inconclusive: 1.41 µM [inhibitor, full curve]	
CCCCOc1c(Cl)cc(CNC(C)(C)CO)cc1OCC	inconclusive: 11.6 µM [inhibitor, partial curve, poor fit]	
c1ccc2c(c1)nc(N1CCCCC1)c1ccccc12	inconclusive: 35.5 µM [inhibitor, single point]	
COc1ccc(C(C(C(=O)c2cccs2)N2CCOCC2)N2CCOCC2)cc1OC (stereo unspecified)		inactive: -2.31%
CCc1nn(C(C)C(=O)NC2CCCCCC2)c(=O)c2cc3occc3n12 (stereo unspecified)		inactive: 20.6% [at 46.1 µM]
C=CCn1c(C)cc(C(=O)COC(=O)[C@@H](NC(=O)c2ccccc2Cl)C(C)C)c1C	inconclusive: 6.31 µM [inhibitor, full curve, poor fit]	
